# Screen size: about 360,000 compounds; about 7,500 (2.1%) were called active. The shares of active, inactive and inconclusive entries below differ from those in the screen. Calls follow the shape of the dose curve; as a rule, active = well fitted inhibition curve with a large enough effect; inconclusive = small, poorly fitted or top-dose-only effect, or effect the other way; inactive = flat fitted curve, though single readings scatter. A potency beside an inconclusive call is a rough fit, not a confirmed value.
# Assay: Nrf2 qHTS screen for inhibitors; also: nearly all actives have a fitted effect of over 60% in size
# Settings: A549 ARE-Fluc reporter, luciferase luminescence, 18-24 h; activity change, negative = inhibition: at 46 µM (top of the series)
# In short: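 Concentration-response testing used A549 ARE_Fluc cells at 5000 cells/well. Following an 18-24 h compound incubation, viability was read by fluorescence (Ex 405/Em 525) and luciferase output by luminescence.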
# % is scaled to controls: 0 for no effect and ±100 for the full control effect; potency is read from the fitted curve at half-maximal effect.
SMILES,Potency,"activity change, negative = inhibition"
N/C(Cc1ccc(Cl)cc1Cl)=N\OC(=O)Cc1ccccc1,"inconclusive: 29.1 µM [activator, partial curve, poor fit]",
O=S1(=O)CCOC[C@H](CC2CCCCC2)N1Cc1ccccc1Br,"inconclusive: 16.4 µM [falling, single point]",
O=[N+]([O-])c1cc(/C=N/O)ccc1SCc1ccccc1Cl,"inconclusive: 29.1 µM [falling, single point]",
CCC(=O)c1ccc(OCCSc2ncccn2)cc1,"inconclusive: 0.411 µM [activator, full curve, poor fit]",
CCOc1ccc2c(c1)C(C)=CC(C)(C)N2S(=O)(=O)c1ccc(F)cc1,,inactive: 3.24%
COc1cc2cncc(Cc3ccc(Cl)cc3)c2cc1OC,"inconclusive: 23.1 µM [falling, single point]",
O=C(Cc1ccc(-n2c(=O)[nH]c3ccccc3c2=O)cc1)N1CCN(c2cccc(Cl)c2)CC1,active: 16.4 µM,
O=C(CN1CCC(N2CCCCC2)CC1)N1CCCc2ccccc21,"inconclusive: 25.9 µM [activator, partial curve, poor fit]",
Cc1nnc(NC(=O)c2ccc(S(=O)(=O)N(C)c3ccccc3)cc2)s1,"inconclusive: 1.3 µM [falling, full curve]",
Cc1noc(C)c1S(=O)(=O)N(C)C[C@H]1Oc2c(NC(=O)Nc3ccccc3)cccc2C(=O)N([C@H](C)CO)C[C@@H]1C,,inactive: 7.64%
C=CCn1c(N2CCN(c3ccc(OC)cc3)CC2)nc2c1c(=O)n(C)c(=O)n2C,"inconclusive: 23.1 µM [falling, single point]",
Cc1ccc(S(=O)(=O)NCCCNS(=O)(=O)c2ccccc2[N+](=O)[O-])cc1,active: 18.4 µM,
CSc1ccc(Cl)c(C(=O)Nc2ccc(N3CCOCC3)cc2)c1,"inconclusive: 0.103 µM [falling, partial curve, poor fit]",
COc1ccccc1C(=O)NCCC(=O)N1CCN(c2ccc(C(F)(F)F)cn2)CC1,"inconclusive: 18.4 µM [falling, partial curve, poor fit]",
N#CCc1ccc(OC(=O)c2cccnc2Cl)cc1,"inconclusive: 14.6 µM [activator, partial curve]",
COc1ccccc1C1C=C(c2ccc(F)cc2)Nc2nc(-c3ccc(Cl)cc3)nn21 (stereo not given),"inconclusive: 16.4 µM [falling, partial curve]",
Cn1c(CNC(=O)c2ccco2)nnc1SCC(=O)N1CCN(c2ccccc2)CC1,,inactive: -11.5%
COC(=O)c1cccc(NC(=O)/C=C/c2ccc3c(c2)OCO3)c1,"inconclusive: 29.1 µM [falling, single point]",
Cc1ccccc1OCC(=O)Nc1ccncc1,"inconclusive: 10.3 µM [falling, partial curve]",
CCOc1ccc(CCNC(=O)CCc2c(C)nc3c4c(C)cc(C)nc4nn3c2C)cc1,,inactive: 8.83%
CC(=O)c1cc(O)c2ccccc2c1O,"inconclusive: 23.1 µM [activator, single point]",
CCCCCOc1ccc(CN2CCOCC2)cc1Cl,"inconclusive: 10.3 µM [activator, partial curve]",

SMILES,Potency,"activity change, negative = inhibition"
CC(C)(CNC(=O)Cc1ccc(NS(=O)(=O)c2cccc(C(F)(F)F)c2)cc1)N1CCOCC1,"inconclusive: 20.6 µM [falling, partial curve, poor fit]",
CC(C)(C)NS(=O)(=O)c1ccc(CCC(=O)Nc2ccc3c(c2)OCCO3)cc1,,inactive: -7.81%
COc1ccc(CNCC(O)(c2ccccc2)c2ccccc2)cc1,"inconclusive: 0.0052 µM [falling, full curve, poor fit]",
O=C(CCc1nc2ccccc2c(=O)[nH]1)Nc1ccc(Cl)c(Cl)c1,"inconclusive: 8.2 µM [falling, partial curve, poor fit]",
O=C(Nc1ccc(NC(=O)C2CC2)cc1)c1ccco1,"inconclusive: 7.31 µM [activator, partial curve]",
O=C(O)c1cc(NC2(c3ccccc3)C(=O)c3ccccc3C2=O)ccc1Cl,"inconclusive: 16.4 µM [activator, partial curve, poor fit]",
COc1ccc2c(c1)OC(c1ccccc1)(C(F)(F)F)NC2=O (stereo not given),,inactive: 2.58%
Cc1cc(C)c(Cn2c3ccccc3c3cnn(CC(=O)NC4CCC(C)CC4)c(=O)c32)c(C)c1 (stereo not given),,inactive: -5.3%
O=C(Cn1c(=O)oc2cc(S(=O)(=O)N3CCCCC3)ccc21)Nc1cccc(Cl)c1,"inconclusive: 23.1 µM [falling, partial curve]",
CCCCN1C(=O)c2[nH]nc(-c3ccccc3O)c2C1c1cccc(OCc2ccccc2)c1 (stereo not given),"inconclusive: 29.1 µM [falling, single point]",
O=C(Nc1cnn(Cc2ccc(Cl)c(Cl)c2)c1)C12CC3CC(CC(C3)C1)C2,"inconclusive: 18.4 µM [falling, single point]",
Cc1cccc[n+]1CC(=O)/C=C1\N(C)c2ccccc2C1(C)C,active: 5.17 µM,
CCc1ccc(NC(=O)c2cc(C(C)=O)n3ccccc23)cc1,"inconclusive: 6.51 µM [falling, single point]",
COC(=O)/C=C/C(=O)NCc1ccco1,"inconclusive: 23.1 µM [falling, single point]",
COc1ccc(CCNc2ccc(C(CC(N)=O)NC(=O)Cc3cccc4ccccc34)cc2[N+](=O)[O-])cc1 (stereo not given),"inconclusive: 29.1 µM [falling, single point]",
COc1ccc(OCCCC(=O)Nc2cc([N+](=O)[O-])ccc2C)cc1,"inconclusive: 6.51 µM [falling, partial curve]",
COc1cc(/C=C/c2ccc3cccc(OC)c3n2)c(O)c([N+](=O)[O-])c1,,inactive: 8.47%
Cc1ccc(-c2nnc3ccc(SCC(=O)OCc4ccccc4)nn23)cc1,,inactive: 1.14%
CCOC(=O)c1scc(-c2ccccc2)c1S(=O)(=O)Nc1ccccc1F,"inconclusive: 4.11 µM [activator, single point]",
Clc1cccc(N2CCN(c3ncnc4c3nc3n4CCCCC3)CC2)c1,active: 13 µM,
Cc1ccc(-c2nc3cc(C(C)C)ccc3o2)cc1NC(=O)c1cc2ccccc2o1,"inconclusive: 2.59 µM [activator, full curve, poor fit]",
CCOC(=O)c1nc2ccccc2s1,"inconclusive: 5.17 µM [activator, full curve]",

# Random excerpt: 2 records from the list
SMILES,Potency,"activity change, negative = inhibition"
COC(=O)c1cccc(NC(=O)/C=C/c2ccc3c(c2)OCO3)c1,"inconclusive: 29.1 µM [falling, single point]",
O=C(Nc1ccc(NC(=O)C2CC2)cc1)c1ccco1,"inconclusive: 7.31 µM [activator, partial curve]",

# More compounds:

SMILES,Potency,"activity change, negative = inhibition"
O=C(c1ccccc1)n1ccc(-c2cnc(-c3ccccc3)s2)n1,"inconclusive: 6.51 µM [activator, partial curve, poor fit]",
CC(=O)Nc1ccc2nc(C3CC3)n(Cc3ccc(Cl)cc3)c(=O)c2c1,"inconclusive: 7.31 µM [activator, partial curve]",
CC/C(=C/c1sc2ccc(C)cc2[n+]1CCO)SC,"inconclusive: 13 µM [falling, partial curve, poor fit]",
CC1CCN(C(=O)COC(=O)c2ccccc2NC(=O)c2ccco2)CC1,"inconclusive: 4.11 µM [activator, partial curve]",
Cc1cc(C)nc(SCC(=O)N/N=C\C(Br)=C\c2ccccc2)n1,"inconclusive: 20.6 µM [falling, single point]",
Cc1ccc(C)n1-c1nnc(N2CCCC(C(=O)NCc3ccc(Cl)cc3)C2)s1 (stereo not given),"inconclusive: 23.1 µM [falling, single point]",
CC1CCCCN1C(=S)NCCc1ccccc1 (stereo not given),"inconclusive: 25.9 µM [activator, partial curve]",
COc1ccc(-c2cc(C(=O)Nc3ccc(O)cc3)c3ccccc3n2)cc1OC,"inconclusive: 20.6 µM [activator, single point]",
CCOC(=O)c1cc(-c2ccccc2C)nn1Cc1cc(CC)no1,"inconclusive: 8.2 µM [activator, partial curve, poor fit]",
O=C(CCSc1nc(-c2ccco2)cc(C(F)(F)F)n1)Nc1cccc(O)c1,,inactive: 4.87%
O=C(N/N=C/c1c(Cl)nc2ccccn2c1=O)c1cccnc1,"inconclusive: 0.206 µM [activator, full curve, poor fit]",
COc1cccc(OC)c1C(=O)Nc1nc2ccc(S(C)(=O)=O)cc2s1,"inconclusive: 2.06 µM [falling, partial curve, poor fit]",
Cc1cc(C(=O)CN2C(=O)c3ccccc3C2=O)c(C)n1Cc1cccs1,"inconclusive: 13 µM [falling, single point]",
Fc1ccc(NC(=S)Nc2cc(-c3ccccc3)[nH]n2)cc1Cl,"inconclusive: 29.1 µM [falling, single point]",
O=C(CCCOc1ccccc1)NC(=S)Nc1ccccc1,"inconclusive: 20.6 µM [activator, partial curve, poor fit]",
CC1CCN(C(=O)c2ccc3c(c2)NC(=O)/C(=C/c2ccccc2)S3)CC1,"inconclusive: 29.1 µM [falling, single point]",
Cc1ccc2c(C)c(C(=O)N3CCN(c4ccncc4)CC3)oc2c1C,"inconclusive: 9.2 µM [falling, partial curve, poor fit]",
COc1ccc(NC(=O)COC(=O)c2ccccc2SCC(=O)N2CCCC2)cc1,"inconclusive: 29.1 µM [activator, partial curve, poor fit]",
CCN(c1ccccc1)S(=O)(=O)c1ccc(C(=O)Nc2nnc(-c3ccco3)o2)cc1,active: 5.17 µM,
COCCNC(=O)/C(C#N)=C/c1cc(C)n(-c2ccc(C)cc2)c1C,"inconclusive: 1.46 µM [activator, partial curve]",
Cc1ccc(S(=O)(=O)c2c(N)n(NC(=O)c3ccccc3C)c3nc4ccccc4nc23)cc1,"inconclusive: 29.1 µM [falling, single point]",

# Compounds shown so far with an aryl thioether with sulfur outside any ring, in the order listed:
SMILES,Potency,"activity change, negative = inhibition"
O=[N+]([O-])c1cc(/C=N/O)ccc1SCc1ccccc1Cl,"inconclusive: 29.1 µM [falling, single point]",
CCC(=O)c1ccc(OCCSc2ncccn2)cc1,"inconclusive: 0.411 µM [activator, full curve, poor fit]",
CSc1ccc(Cl)c(C(=O)Nc2ccc(N3CCOCC3)cc2)c1,"inconclusive: 0.103 µM [falling, partial curve, poor fit]",
Cn1c(CNC(=O)c2ccco2)nnc1SCC(=O)N1CCN(c2ccccc2)CC1,,inactive: -11.5%
Cc1ccc(-c2nnc3ccc(SCC(=O)OCc4ccccc4)nn23)cc1,,inactive: 1.14%
Cc1cc(C)nc(SCC(=O)N/N=C\C(Br)=C\c2ccccc2)n1,"inconclusive: 20.6 µM [falling, single point]",
O=C(CCSc1nc(-c2ccco2)cc(C(F)(F)F)n1)Nc1cccc(O)c1,,inactive: 4.87%
COc1ccc(NC(=O)COC(=O)c2ccccc2SCC(=O)N2CCCC2)cc1,"inconclusive: 29.1 µM [activator, partial curve, poor fit]",

# Source: PubChem BioAssay AID504444 (National Center for Advancing Translational Sciences (NCATS), 2011)
